Experimental data taken from publication PMC11045811.
Results are given in words; binding and its absence hold for the method and conditions named. For some of these results: Binding seen in cells or lysates may run through a third protein. Some binding calls cover weakened binding; strength is not graded here. Tags and fused reporters may be left off the sequences shown.

Legend:
[1] = target: human CaSR C129S + C131S (CSCS) double mutant with Flag or HA and SNAP tags (human) (UniProt P41180); assay: non-reducing SDS-PAGE, fluorescent-labelled blot; HEK293 cells 24 h after transfection; surface receptors labelled with 100 nM SNAP-Surface 649; lysed in 50 mM Tris-HCl pH 7.4, 150 mM NaCl, 1% NP-40, 0.5% sodium deoxycholate, 0.1% SDS; SDS-PAGE (8%) without DTT (reducing conditions: 100 mM DTT)
[2] = target: human CaSR C129S + C131S (CSCS), Flag-SNAP-tagged, with Rluc or YFP at the C-terminus (human) (UniProt P41180); assay: FRET or BRET; BRET saturation in HEK293 cells: constant amount of Rluc-tagged receptor (0.2 ug plasmid), increasing amount of YFP-tagged receptor (0-1 ug); HBS buffer, 37 C, coelenterazine H 5 uM
[3] = target: human CaSR CSCS + S132C (C129S + C131S + S132C) with Flag or HA and SNAP tags (human) (UniProt P41180); assay: non-reducing SDS-PAGE, fluorescent-labelled blot; HEK293 cells 24 h after transfection; surface receptors labelled with 100 nM SNAP-Surface 649; lysed in 50 mM Tris-HCl pH 7.4, 150 mM NaCl, 1% NP-40, 0.5% sodium deoxycholate, 0.1% SDS; SDS-PAGE (8%) without DTT (reducing conditions: 100 mM DTT)
[4] = target: T1, wild-type human calcium-sensing receptor (CaSR) with Flag or HA and SNAP tags (human), P41180; assay: as above; details: remark: other sources report otherwise
T1 chain: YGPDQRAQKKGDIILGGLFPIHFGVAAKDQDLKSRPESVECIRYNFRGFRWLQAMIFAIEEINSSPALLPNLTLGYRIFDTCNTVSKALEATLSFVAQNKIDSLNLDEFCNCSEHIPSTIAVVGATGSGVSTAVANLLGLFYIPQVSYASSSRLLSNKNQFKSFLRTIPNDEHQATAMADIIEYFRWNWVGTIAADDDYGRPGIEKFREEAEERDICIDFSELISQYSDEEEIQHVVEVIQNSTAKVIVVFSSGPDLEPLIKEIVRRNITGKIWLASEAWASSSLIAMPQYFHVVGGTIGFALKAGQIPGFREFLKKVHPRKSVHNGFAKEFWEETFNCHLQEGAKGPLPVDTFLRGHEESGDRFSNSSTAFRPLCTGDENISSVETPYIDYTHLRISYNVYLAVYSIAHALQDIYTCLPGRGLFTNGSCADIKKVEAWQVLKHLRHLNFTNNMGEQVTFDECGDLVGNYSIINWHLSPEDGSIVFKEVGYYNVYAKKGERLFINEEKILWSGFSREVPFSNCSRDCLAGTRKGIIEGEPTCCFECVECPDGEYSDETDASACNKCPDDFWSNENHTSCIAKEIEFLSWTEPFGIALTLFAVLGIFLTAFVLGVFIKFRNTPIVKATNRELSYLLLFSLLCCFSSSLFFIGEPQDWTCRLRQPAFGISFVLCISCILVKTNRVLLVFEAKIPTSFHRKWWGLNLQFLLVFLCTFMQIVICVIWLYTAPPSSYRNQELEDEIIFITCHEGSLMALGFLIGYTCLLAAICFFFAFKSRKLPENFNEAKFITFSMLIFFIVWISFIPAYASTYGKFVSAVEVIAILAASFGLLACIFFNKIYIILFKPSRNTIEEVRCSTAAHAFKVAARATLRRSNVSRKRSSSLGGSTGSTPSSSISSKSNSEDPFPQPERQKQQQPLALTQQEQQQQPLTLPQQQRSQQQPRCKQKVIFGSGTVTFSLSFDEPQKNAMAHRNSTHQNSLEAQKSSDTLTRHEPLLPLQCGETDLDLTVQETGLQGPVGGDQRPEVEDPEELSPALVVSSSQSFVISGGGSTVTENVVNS

B1: human CaSR C129S + C131S (CSCS) double mutant with Flag or HA and SNAP tags (receptor, UniProt P41180-1 20-1078)
chain: YGPDQRAQKKGDIILGGLFPIHFGVAAKDQDLKSRPESVECIRYNFRGFRWLQAMIFAIEEINSSPALLPNLTLGYRIFDTCNTVSKALEATLSFVAQNKIDSLNLDEFSNSSEHIPSTIAVVGATGSGVSTAVANLLGLFYIPQVSYASSSRLLSNKNQFKSFLRTIPNDEHQATAMADIIEYFRWNWVGTIAADDDYGRPGIEKFREEAEERDICIDFSELISQYSDEEEIQHVVEVIQNSTAKVIVVFSSGPDLEPLIKEIVRRNITGKIWLASEAWASSSLIAMPQYFHVVGGTIGFALKAGQIPGFREFLKKVHPRKSVHNGFAKEFWEETFNCHLQEGAKGPLPVDTFLRGHEESGDRFSNSSTAFRPLCTGDENISSVETPYIDYTHLRISYNVYLAVYSIAHALQDIYTCLPGRGLFTNGSCADIKKVEAWQVLKHLRHLNFTNNMGEQVTFDECGDLVGNYSIINWHLSPEDGSIVFKEVGYYNVYAKKGERLFINEEKILWSGFSREVPFSNCSRDCLAGTRKGIIEGEPTCCFECVECPDGEYSDETDASACNKCPDDFWSNENHTSCIAKEIEFLSWTEPFGIALTLFAVLGIFLTAFVLGVFIKFRNTPIVKATNRELSYLLLFSLLCCFSSSLFFIGEPQDWTCRLRQPAFGISFVLCISCILVKTNRVLLVFEAKIPTSFHRKWWGLNLQFLLVFLCTFMQIVICVIWLYTAPPSSYRNQELEDEIIFITCHEGSLMALGFLIGYTCLLAAICFFFAFKSRKLPENFNEAKFITFSMLIFFIVWISFIPAYASTYGKFVSAVEVIAILAASFGLLACIFFNKIYIILFKPSRNTIEEVRCSTAAHAFKVAARATLRRSNVSRKRSSSLGGSTGSTPSSSISSKSNSEDPFPQPERQKQQQPLALTQQEQQQQPLTLPQQQRSQQQPRCKQKVIFGSGTVTFSLSFDEPQKNAMAHRNSTHQNSLEAQKSSDTLTRHEPLLPLQCGETDLDLTVQETGLQGPVGGDQRPEVEDPEELSPALVVSSSQSFVISGGGSTVTENVVNS
modifications: SNAP-Surface 649 on the SNAP tag
B1 was tested, and the binding [1] was “binds”.

B2: human CaSR C129S + C131S (CSCS), Flag-SNAP-tagged, with Rluc or YFP at the C-terminus (receptor, UniProt P41180-1 20-1078)
chain: YGPDQRAQKKGDIILGGLFPIHFGVAAKDQDLKSRPESVECIRYNFRGFRWLQAMIFAIEEINSSPALLPNLTLGYRIFDTCNTVSKALEATLSFVAQNKIDSLNLDEFSNSSEHIPSTIAVVGATGSGVSTAVANLLGLFYIPQVSYASSSRLLSNKNQFKSFLRTIPNDEHQATAMADIIEYFRWNWVGTIAADDDYGRPGIEKFREEAEERDICIDFSELISQYSDEEEIQHVVEVIQNSTAKVIVVFSSGPDLEPLIKEIVRRNITGKIWLASEAWASSSLIAMPQYFHVVGGTIGFALKAGQIPGFREFLKKVHPRKSVHNGFAKEFWEETFNCHLQEGAKGPLPVDTFLRGHEESGDRFSNSSTAFRPLCTGDENISSVETPYIDYTHLRISYNVYLAVYSIAHALQDIYTCLPGRGLFTNGSCADIKKVEAWQVLKHLRHLNFTNNMGEQVTFDECGDLVGNYSIINWHLSPEDGSIVFKEVGYYNVYAKKGERLFINEEKILWSGFSREVPFSNCSRDCLAGTRKGIIEGEPTCCFECVECPDGEYSDETDASACNKCPDDFWSNENHTSCIAKEIEFLSWTEPFGIALTLFAVLGIFLTAFVLGVFIKFRNTPIVKATNRELSYLLLFSLLCCFSSSLFFIGEPQDWTCRLRQPAFGISFVLCISCILVKTNRVLLVFEAKIPTSFHRKWWGLNLQFLLVFLCTFMQIVICVIWLYTAPPSSYRNQELEDEIIFITCHEGSLMALGFLIGYTCLLAAICFFFAFKSRKLPENFNEAKFITFSMLIFFIVWISFIPAYASTYGKFVSAVEVIAILAASFGLLACIFFNKIYIILFKPSRNTIEEVRCSTAAHAFKVAARATLRRSNVSRKRSSSLGGSTGSTPSSSISSKSNSEDPFPQPERQKQQQPLALTQQEQQQQPLTLPQQQRSQQQPRCKQKVIFGSGTVTFSLSFDEPQKNAMAHRNSTHQNSLEAQKSSDTLTRHEPLLPLQCGETDLDLTVQETGLQGPVGGDQRPEVEDPEELSPALVVSSSQSFVISGGGSTVTENVVNS
In the case of B2, the binding [2] is reported as “binds”.

B3: human CaSR CSCS + S132C (C129S + C131S + S132C) with Flag or HA and SNAP tags (receptor, UniProt P41180-1 20-1078)
chain: YGPDQRAQKKGDIILGGLFPIHFGVAAKDQDLKSRPESVECIRYNFRGFRWLQAMIFAIEEINSSPALLPNLTLGYRIFDTCNTVSKALEATLSFVAQNKIDSLNLDEFSNSCEHIPSTIAVVGATGSGVSTAVANLLGLFYIPQVSYASSSRLLSNKNQFKSFLRTIPNDEHQATAMADIIEYFRWNWVGTIAADDDYGRPGIEKFREEAEERDICIDFSELISQYSDEEEIQHVVEVIQNSTAKVIVVFSSGPDLEPLIKEIVRRNITGKIWLASEAWASSSLIAMPQYFHVVGGTIGFALKAGQIPGFREFLKKVHPRKSVHNGFAKEFWEETFNCHLQEGAKGPLPVDTFLRGHEESGDRFSNSSTAFRPLCTGDENISSVETPYIDYTHLRISYNVYLAVYSIAHALQDIYTCLPGRGLFTNGSCADIKKVEAWQVLKHLRHLNFTNNMGEQVTFDECGDLVGNYSIINWHLSPEDGSIVFKEVGYYNVYAKKGERLFINEEKILWSGFSREVPFSNCSRDCLAGTRKGIIEGEPTCCFECVECPDGEYSDETDASACNKCPDDFWSNENHTSCIAKEIEFLSWTEPFGIALTLFAVLGIFLTAFVLGVFIKFRNTPIVKATNRELSYLLLFSLLCCFSSSLFFIGEPQDWTCRLRQPAFGISFVLCISCILVKTNRVLLVFEAKIPTSFHRKWWGLNLQFLLVFLCTFMQIVICVIWLYTAPPSSYRNQELEDEIIFITCHEGSLMALGFLIGYTCLLAAICFFFAFKSRKLPENFNEAKFITFSMLIFFIVWISFIPAYASTYGKFVSAVEVIAILAASFGLLACIFFNKIYIILFKPSRNTIEEVRCSTAAHAFKVAARATLRRSNVSRKRSSSLGGSTGSTPSSSISSKSNSEDPFPQPERQKQQQPLALTQQEQQQQPLTLPQQQRSQQQPRCKQKVIFGSGTVTFSLSFDEPQKNAMAHRNSTHQNSLEAQKSSDTLTRHEPLLPLQCGETDLDLTVQETGLQGPVGGDQRPEVEDPEELSPALVVSSSQSFVISGGGSTVTENVVNS
modifications: SNAP-Surface 649 on the SNAP tag
B3 was tested, and the binding [3] was “binds”.

B4: wild-type human calcium-sensing receptor (CaSR) with Flag or HA and SNAP tags, P41180-1 20-1078 (receptor)
chain: YGPDQRAQKKGDIILGGLFPIHFGVAAKDQDLKSRPESVECIRYNFRGFRWLQAMIFAIEEINSSPALLPNLTLGYRIFDTCNTVSKALEATLSFVAQNKIDSLNLDEFCNCSEHIPSTIAVVGATGSGVSTAVANLLGLFYIPQVSYASSSRLLSNKNQFKSFLRTIPNDEHQATAMADIIEYFRWNWVGTIAADDDYGRPGIEKFREEAEERDICIDFSELISQYSDEEEIQHVVEVIQNSTAKVIVVFSSGPDLEPLIKEIVRRNITGKIWLASEAWASSSLIAMPQYFHVVGGTIGFALKAGQIPGFREFLKKVHPRKSVHNGFAKEFWEETFNCHLQEGAKGPLPVDTFLRGHEESGDRFSNSSTAFRPLCTGDENISSVETPYIDYTHLRISYNVYLAVYSIAHALQDIYTCLPGRGLFTNGSCADIKKVEAWQVLKHLRHLNFTNNMGEQVTFDECGDLVGNYSIINWHLSPEDGSIVFKEVGYYNVYAKKGERLFINEEKILWSGFSREVPFSNCSRDCLAGTRKGIIEGEPTCCFECVECPDGEYSDETDASACNKCPDDFWSNENHTSCIAKEIEFLSWTEPFGIALTLFAVLGIFLTAFVLGVFIKFRNTPIVKATNRELSYLLLFSLLCCFSSSLFFIGEPQDWTCRLRQPAFGISFVLCISCILVKTNRVLLVFEAKIPTSFHRKWWGLNLQFLLVFLCTFMQIVICVIWLYTAPPSSYRNQELEDEIIFITCHEGSLMALGFLIGYTCLLAAICFFFAFKSRKLPENFNEAKFITFSMLIFFIVWISFIPAYASTYGKFVSAVEVIAILAASFGLLACIFFNKIYIILFKPSRNTIEEVRCSTAAHAFKVAARATLRRSNVSRKRSSSLGGSTGSTPSSSISSKSNSEDPFPQPERQKQQQPLALTQQEQQQQPLTLPQQQRSQQQPRCKQKVIFGSGTVTFSLSFDEPQKNAMAHRNSTHQNSLEAQKSSDTLTRHEPLLPLQCGETDLDLTVQETGLQGPVGGDQRPEVEDPEELSPALVVSSSQSFVISGGGSTVTENVVNS
modifications: here or on the partner: SNAP-Surface 649 on the SNAP tag; SNAP-Surface 649 on the SNAP tag
B4 was tested, and the binding [4] was “binds”.
